Results of single-concentration screens

Amino acid sequences for entries named in this document (tags omitted). Residues count along the entry.
UniProt A4I591, 1-473: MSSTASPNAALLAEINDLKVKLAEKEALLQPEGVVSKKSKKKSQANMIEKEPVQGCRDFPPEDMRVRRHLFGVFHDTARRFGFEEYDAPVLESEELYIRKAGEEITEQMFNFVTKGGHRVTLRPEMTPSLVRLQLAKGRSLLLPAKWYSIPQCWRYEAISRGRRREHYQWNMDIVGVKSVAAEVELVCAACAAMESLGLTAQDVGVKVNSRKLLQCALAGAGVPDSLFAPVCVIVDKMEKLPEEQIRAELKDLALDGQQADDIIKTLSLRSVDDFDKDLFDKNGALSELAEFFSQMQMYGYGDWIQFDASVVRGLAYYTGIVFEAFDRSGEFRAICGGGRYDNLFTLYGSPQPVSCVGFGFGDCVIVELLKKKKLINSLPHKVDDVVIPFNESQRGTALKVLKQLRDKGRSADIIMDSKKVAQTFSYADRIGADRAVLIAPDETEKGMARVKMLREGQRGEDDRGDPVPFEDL
UniProt P9WNZ1, whole entry: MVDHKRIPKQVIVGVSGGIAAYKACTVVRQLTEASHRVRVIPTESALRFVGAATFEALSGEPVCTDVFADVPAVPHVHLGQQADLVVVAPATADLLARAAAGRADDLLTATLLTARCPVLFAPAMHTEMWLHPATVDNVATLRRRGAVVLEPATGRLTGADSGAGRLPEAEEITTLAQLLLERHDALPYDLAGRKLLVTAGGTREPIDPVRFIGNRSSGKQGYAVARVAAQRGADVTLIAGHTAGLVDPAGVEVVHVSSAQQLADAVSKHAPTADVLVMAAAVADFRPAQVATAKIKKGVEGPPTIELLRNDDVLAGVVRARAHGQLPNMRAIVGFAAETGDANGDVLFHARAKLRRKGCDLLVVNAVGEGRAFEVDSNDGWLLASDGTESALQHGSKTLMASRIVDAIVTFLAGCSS
UniProt P9WFT3, whole entry: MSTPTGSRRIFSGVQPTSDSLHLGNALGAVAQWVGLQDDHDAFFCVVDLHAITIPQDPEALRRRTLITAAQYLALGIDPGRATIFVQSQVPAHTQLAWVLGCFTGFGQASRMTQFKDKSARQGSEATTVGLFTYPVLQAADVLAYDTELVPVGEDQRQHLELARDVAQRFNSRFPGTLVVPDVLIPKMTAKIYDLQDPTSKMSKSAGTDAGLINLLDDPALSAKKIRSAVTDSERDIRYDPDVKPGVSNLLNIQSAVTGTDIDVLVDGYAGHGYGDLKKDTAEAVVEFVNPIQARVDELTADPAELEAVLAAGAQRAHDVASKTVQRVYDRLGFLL

A: 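Enzyme assay of histidyl-tRNA synthetase; the read-out is not stated. Target: Histidine-tRNA ligase, Leishmania infantum (UniProt A4I591). Tested at 30 µM. Higher reads as stronger inhibition (inferred: compounds with an IC50 in retests scored well above the rest). The assay is labelled LdHisRS but filed under L. infantum. Size under these conditions: about 69,000 compounds, about 410 of them at 50% or above in at least one test.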
B: 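Enzyme assay of CoaBC with a phosphate dye (Biomol Green) read at 650 nm. Target: Coenzyme A biosynthesis protein CoaBC, Mycobacterium tuberculosis (UniProt P9WNZ1). Concentration: 30 µM. Higher reads as stronger inhibition, judged from the few compounds that gave an IC50. Most strong results did not repeat in a second test. About 67,000 compounds were tested under these conditions; 0.06% (about 40) showed 50% or more at least once.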
C: 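Enzyme assay of tryptophanyl-tRNA synthetase; the read-out is not stated. Target: Tryptophan-tRNA ligase, Mycobacterium tuberculosis (UniProt P9WFT3). Concentration: 10 µM. Higher most likely means stronger inhibition; the record gives no direction and few retests gave an IC50. Size under these conditions: about 65,000 compounds, about 64 of them at 50% or above in at least one test.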

The filed quantity is “Percent Effect” (%). The record does not define 0% and 100%; most values in the screen are far below 50% and negative numbers occur (in some assays of this library far below -100). Compounds were drawn at random from those tested, without regard to their results. Two or more numbers in one place are separate tests of the same structure; such repeats can differ widely.

For CCOc1ccc(CN2CC[C@@](C)(O)[C@@H](Cc3ccccc3)C2)cn1 the result was A: 12.9%; B: 3.99%; C: 0.7346%.
For Cn1cnc2cc(NC(=O)c3n[nH]c4c3CCC4)ccc21 the result was A: -3.297%; B: 21.93% & 2.577%; C: -0.3079%.
For CSc1nc2cc(C)n(CC(=O)Nc3nccs3)c2c(=O)n1CC(C)C the result was A: 11.86%; B: 5.897%; C: -1.814%.
For O=C(COCC(=O)N(c1ccccc1)c1ccccc1)N1CCCC1 the result was A: 10.34%; B: 6.711%; C: 0.2447%.
For NC(=O)c1c[nH]nc1NC(=O)c1cccc(Cl)c1 the result was A: 12.37%; B: 0.6135%.
For O=C1CC(c2ccc(C(=O)O)cc2)c2ncn(-c3ccccc3Cl)c2N1 (configuration not stated) the result was A: 45%; B: 17.34%; C: 9.083%.
For CC(=O)c1c(C)nn(S(=O)(=O)c2ccc(F)cc2)c1C the result was A: 3.571%; B: 3.121%; C: -2.8%.
For Cc1ccc(-c2nc(C(=O)N(C)C3CCN(C)CC3)cs2)c(C)c1 the result was A: 1.835%; B: 5.853%; C: -0.7741%.
For CC1CN(c2ncnc3c2cnn3C)CCN1c1nccs1 (configuration not stated) the result was A: 1.176%; B: 1.294%; C: -3.331%.
For COc1cccc(CN2CCC3(CCN(C(=O)C4CC=CC4)CC3)C2)c1 the result was A: 30.56%; B: -4.516%; C: -2.509%.
For Cc1noc(C)c1C(=O)N1CCC(n2cccn2)CC1 the result was A: -7.254%; B: 1.911%; C: -3.579%.
For COCCCN(CCOC)Cc1nc2c(cnn2C)c(=O)[nH]1 the result was A: 14.04%; B: 3.354%; C: -0.4259%.
For COCC1CN(S(=O)(=O)C2CC2)Cc2ncn(CC3CC3)c21 (configuration not stated) the result was A: 18.06%; B: -15.06%; C: -2.995%.
For CC(O)CN1CCC(CNCCOCC(F)(F)F)CC1 (configuration not stated) the result was A: 8.333%; B: -18.18%; C: -1.845%.
For O=C1CNc2ncnc(Nc3cnn(Cc4ccccc4)c3)c2N1 the result was A: 16.48%; B: 3.373%; C: 2.006%.
For COc1ccccc1C1CCCN1CC(=O)N1CCC(C(N)=O)CC1 (configuration not stated) the result was A: 2.069%; B: -3.585%; C: 9.255%.
For CCN1CC2(CCC1=O)CCN(C(=O)c1ccc(Cl)cc1O)CC2 the result was A: 20.19%; B: 0.4219%; C: -4.55%.
For Cc1cc(C2CCCN(CCC(=O)N3CCc4ccccc43)C2)n[nH]1 (configuration not stated) the result was A: -1.036%; B: 0.8917%; C: 3.988%.
For COc1ccnc(N2CCC(=O)N(CC3CC3)C(C(C)C)C2)n1 (configuration not stated) the result was A: 12%; B: 3.498%; C: -3.406%.
For Cc1ccc(N2CCCC3(CCN(C(=O)C4CC4)C3)C2)nn1 (configuration not stated) the result was A: 10%; B: 4.187%; C: -4.17%.
For Cc1ccc(CCNC(=O)N2CCCC(Cc3nccn3C)C2)cn1 (configuration not stated) the result was A: 23.08%; B: -6.418%; C: -0.1876%.
For CC(=O)N1Cc2ccccc2C[C@H]1C(=O)Nc1ccccn1 the result was A: 16.67%; B: 2.195%; C: -8.319%.
For Cc1cnn(CC2CN(CC(=O)Nc3sccc3C#N)CCO2)c1 (configuration not stated) the result was A: 23.2%; B: -2.394%; C: 3.302%.
For O=C(CC1CCCO1)Nc1cccc(N2CCN(CC3CC3)CC2)c1 (configuration not stated) the result was A: 12.12%; B: -8.087%; C: 0.831%.
For CN(Cc1cncnc1)Cc1cn2c(n1)CN(C1CCOC1)CC2 (configuration not stated) the result was A: 16.98%; B: 6.472%; C: 7.87%.
For COC(=O)CN(C(=O)c1ccc(-n2ccnc2)cc1)C1CCCC1 the result was A: 15.04%; B: 3.271%; C: -2.694%.
For CC1=N[C@@]2(CC[C@@H]3CN(S(=O)(=O)CC(C)C)C[C@@H]32)C(=O)N1CC1CC1 the result was A: -70.59%; B: -1.523%; C: 7.49%.
For CCCn1cc(NC(=O)c2cccnc2O)ccc1=O the result was A: 17.12%; B: 1.556%; C: 5.318%.
For CC(NCc1ccc(OCC(N)=O)cc1)c1ccc2c(c1)CCCC2 (configuration not stated) the result was A: 19.83%; B: 4.619%; C: -4.066%.
For CC(C)N1CCc2ncn(C(C)C)c2C1C(=O)N1CCN(C)CC1 (configuration not stated) the result was A: 8.621%; C: -2.697%.
For COc1nn(C)c2c1CCCN(C(=O)c1cscn1)C2 the result was A: 8.182%; B: 0.2469%.
For O=C(CCCOc1ccccc1F)NCCCC(=O)Nc1cn[nH]c1 the result was A: 9.821%; B: 2.066%; C: 0.7965%.
For CCC(CO)N(Cc1ccccn1)C(=O)c1ccc(F)c(F)c1 (configuration not stated) the result was A: 5.208%; B: 0.5141%; C: -1.051%.
For CC(C)(C)n1cc(C(=O)N2CCN(Cc3ccccc3F)CC2)cn1 the result was A: 12%; B: -0.7979%; C: 1.415%.
For Cc1ccc(-c2cc(N)c(=O)n(C(C)C(N)=O)n2)o1 (configuration not stated) the result was A: 8.054%; B: 1.37%; C: -11.82%.
For CC(C)N1CCCC(Cc2nccnc2Cl)CC1 (configuration not stated) the result was A: 12.86%; B: 0%; C: 4.299%.

Once more, the final 3:

SMILES,A,B,C
CC(C)(C)n1cc(C(=O)N2CCN(Cc3ccccc3F)CC2)cn1,12,-0.7979,1.415
Cc1ccc(-c2cc(N)c(=O)n(C(C)C(N)=O)n2)o1 (configuration not stated),8.054,1.37,-11.82
CC(C)N1CCCC(Cc2nccnc2Cl)CC1 (configuration not stated),12.86,0,4.299

From ChEMBL document CHEMBL3988442, “University of Dundee, Small-Polar-MMV Screening Library” (2021).